Test results as given in patent US20260069728A1, “MULTI-TARGETING COMPOUND AND USE THEREOF” (Chengdu Shetai Medical Technology Co., Ltd., priority 2023, published 2026).
At least one peptide structure holds a part that was inferred or is arguable (an end, a ring closure or a residue).

Experiment: Stability of radioligands in PBS buffer (radio-HPLC)
Assay type: physicochemical
Details: PBS buffer pH=7.4, 37° C.
Method: The purpose of this experiment was to test the stability of the radioligands under buffer conditions simulating the physiological environment. This stability is a prerequisite for further animal experiments.
(§1) 1. ^68Ga-SDYD01: ^68Ga-SDYD01 was added to PBS buffer (pH=7.4) and incubated at 37° C. The mixture samples were taken for radio-HPLC analysis after 0.5 hours, 1 hour, and 2 hours of incubation. The stability of ^68Ga-SDYD01 in PBS buffer: the radiochemical purities of ^68Ga-SDYD01 after incubation in PBS for 0.5 hours, 1 hour, and 2 hours were 98%, 97%, and 97%, respectively (FIG. 4).
(§2) 2. ^177Lu-SDYD01: ^177Lu-SDYD01 was added to PBS buffer (pH=7.4) and incubated at 37° C. The mixture samples were taken for radio-HPLC analysis after 24 hours, 48 hours, and 120 hours of incubation. The stability of ^177Lu-SDYD01 in PBS buffer: the radiochemical purities of ^177Lu-SDYD01 after incubation in PBS for 24 hours, 48 hours, and 120 hours were 97%, 96%, and 94%, respectively (FIG. 5).
as §1, with “^68Ga-SDYD02: ^68Ga-SDYD02” for “^68Ga-SDYD01: ^68Ga-SDYD01”, “^68Ga-SDYD02” for “^68Ga-SDYD01”, “96%, 95%” for “98%, 97%,”, “93%,” for “97%,”, “10).” for “4).”
as §2, with “^177Lu-SDYD02: ^177Lu-SDYD02” for “^177Lu-SDYD01: ^177Lu-SDYD01”, “^177Lu-SDYD02” for “^177Lu-SDYD01”, “95%, 91%” for “97%, 96%,”, “87%,” for “94%,”, “11).” for “5).”
as §1, with “1. ^68Ga-SDYD05: ^68Ga-SDYD05” for “1. ^68Ga-SDYD01: ^68Ga-SDYD01”, “of ^68Ga-SDYD05” for “of ^68Ga-SDYD01”, “98%, 96%” for “98%, 97%,”, “and 95%,” for “and 97%,”, “(FIG. 16).” for “(FIG. 4).”
as §2, with “^177Lu-SDYD05: ^177Lu-SDYD05” for “^177Lu-SDYD01: ^177Lu-SDYD01”, “^177Lu-SDYD05” for “^177Lu-SDYD01”, “97%, 96% and” for “97%,”, “96%,” for “96%, and 94%,”, “17).” for “5).”
1. ^68Ga-SDYD06: ^68Ga-SDYD06 was added to PBS buffer (pH=7.4) and incubated at 37° C. The mixture samples were taken for radio-HPLC analysis after 0.5, 1, and 2 hours of incubation. The stability of ^68Ga-SDYD06 in PBS buffer: the radiochemical purities of ^68Ga-SDYD06 after incubation in PBS for 0.5 hours, 1 hour, and 2 hours were 96%, 94% and 93%, respectively (FIG. 22).
2. ^177Lu-SDYD06: ^177Lu-SDYD06 was added to PBS buffer (pH=7.4) and incubated at 37° C. The mixture samples were taken for radio-HPLC analysis after 24 hours, 48 hours, and 120 hours of incubation.
1. ^68Ga-SDYD03: ^68Ga-SDYD03 was added to PBS buffer (pH=7.4) and incubated at 37° C. The mixture samples were taken for radio-HPLC analysis after 0.5 hours, 1 hour, and 2 hours of incubation. The stability of ^68Ga-SDYD03 PBS in PBS buffer: the radiochemical purities of ^68Ga-SDYD03 after incubation in PBS for 0.5 hours, 1 hour, and 2 hours were 96%, 96% and 95%, respectively (FIG. 27).
as §2, with “^177Lu-SDYD03: ^177Lu-SDYD03” for “^177Lu-SDYD01: ^177Lu-SDYD01”, “^177Lu-SDYD03” for “^177Lu-SDYD01”, “are 99%, 96%” for “were 97%, 96%,”, “28). […]” for “5).”

**Q.** For `CCCCCC(=O)N[C@@H]1CSCc2cc(CSCCNC(=O)[C@@H](CCCCNC(=O)CN3CCN(CC(=O)O)CCN(CC(=O)O)CCN(CC(=O)O)CC3)NC(=O)COCCOCCNC(=O)COCCOCCNC(=O)CCN3C(=O)CC(SCCNC(=O)CCC(=O)N[C@@H](CCCNC(=N)N)C(=O)N[C@@H](CCCNC(=N)N)C(=O)N[C@@H](Cc4ccc5ccccc5c4)C(=O)N[C@@H]4CSSC[C@@H](C(=O)N[C@@H](CCCNC(=N)N)C(N)=O)NC(=O)[C@H](CCCNC(N)=O)NC(=O)[C@H](CCCNC(=N)N)NC(=O)[C@H](Cc5ccc(O)cc5)NC(=O)[C@@H]5CCCN5C(=O)[C@H](CCCCN)NC(=O)[C@H](CCCCN)NC(=O)[C@H](CCCNC(N)=O)NC(=O)[C@H](Cc5ccc(O)cc5)NC4=O)C3=O)cc(c2)CSC[C@@H](C(=O)O)NC(=O)[C@H](Cc2ccccc2)NC(=O)[C@H](CCC(N)=O)NC(=O)C([C@@H](C)O)NC(=O)[C@@H]2CCCN2C(=O)[C@@H]2CCCN2C1=O` (single isomer, unassigned) [^68Ga-SDYD02, metal not drawn], which “radiochemical purity after incubation in PBS” value (“radiochemical purity” for short) (0.5 hours) is on record?
**A.** 96%

**Q.** And the “radiochemical purity” value (1 hour)?
**A.** 95%

**Q.** What about the “radiochemical purity” value (2 hours) of the same compound?
**A.** 93%

**Q.** Which “radiochemical purity” value (0.5 hours) does the source give for `CCCCCC(=O)N[C@@H]1CSCc2cc(CSCCNC(=O)COCCOCCNC(=O)COCCOCCNC(=O)CSC3CC(=O)N(CCC(=O)N[C@H](CCCCNC(=O)CN4CCN(CC(=O)O)CCN(CC(=O)O)CCN(CC(=O)O)CC4)C(=O)NCc4ccc(C(=O)NCCC[C@@H]5C(=O)N[C@@H](CCCNC(=N)N)C(=O)N[C@@H](Cc6ccc7ccccc7c6)C(=O)NCC(=O)N[C@H](Cc6ccc(O)cc6)C(=O)N5C)cc4)C3=O)cc(c2)CSC[C@@H](C(=O)O)NC(=O)[C@H](Cc2ccccc2)NC(=O)[C@H](CCC(N)=O)NC(=O)C([C@@H](C)O)NC(=O)[C@@H]2CCCN2C(=O)[C@@H]2CCCN2C1=O` (single isomer, unassigned) [^68Ga-SDYD06, metal not drawn] here?
**A.** 96%

**Q.** And the “radiochemical purity” value (1 hour)?
**A.** 94%

**Q.** What about the “radiochemical purity” value (2 hours) of the same compound?
**A.** 93%

**Q.** What does the source list for `N#C[C@@H]1CC(F)(F)CN1C(=O)CNC(=O)c1ccnc2ccc(OCCCN3CCN(C(=O)[C@H](CCCCNC(=O)CCN4C(=O)CC(SCC(=O)NCCOCCOCCOCCOCCC(=O)NCCCC[C@@H]5NC(=O)[C@@H](Cc6ccc(O)cc6)NC(=O)[C@H](CC(=O)O)NC(=O)CNC(=O)[C@H](CCCNC(=N)N)NC5=O)C4=O)NC(=O)CCC(C(=O)O)N4CCN(CC(=O)O)CCN(CC(=O)O)CCN(CC(=O)O)CC4)CC3)cc12` (single isomer, unassigned) [^68Ga-SDYD07, metal not drawn]?
**A.** radiochemical purity after incubation in PBS (0.5 hours): 99%; radiochemical purity after incubation in PBS (1 hour): 98%; radiochemical purity after incubation in PBS (2 hours): 98%

**Q.** Which results are given for `CCCCCC(=O)N[C@H]1CSCc2cc(CSCCNC(=O)[C@H](CCCCNC(=O)CCN3C(=O)CC(SCC(=O)NCCOCCOCCOCCOCCC(=O)NCCCC[C@@H]4NC(=O)[C@@H](Cc5ccc(O)cc5)NC(=O)[C@H](CC(=O)O)NC(=O)CNC(=O)[C@H](CCCNC(=N)N)NC4=O)C3=O)NC(=O)CCC(C(=O)O)N3CCN(CC(=O)O)CCN(CC(=O)O)CCN(CC(=O)O)CC3)cc(c2)CSC[C@@H](C(=O)O)NC(=O)[C@H](Cc2ccccc2)NC(=O)[C@H](CCC(N)=O)NC(=O)C([C@@H](C)O)NC(=O)[C@@H]2CCCN2C(=O)[C@@H]2CCCN2C1=O` (single isomer, unassigned) [^68Ga-SDYD08, metal not drawn]?
**A.** radiochemical purity after incubation in PBS (0.5 hours): 99%; radiochemical purity after incubation in PBS (1 hour): 97%; radiochemical purity after incubation in PBS (2 hours): 96%

**Q.** For `CCCCCC(=O)N[C@@H]1CSCc2cc(CSCCNC(=O)[C@@H](CCCCNC(=O)CN3CCN(CC(=O)O)CCN(CC(=O)O)CCN(CC(=O)O)CC3)NC(=O)COCCOCCNC(=O)COCCOCCNC(=O)CCN3C(=O)CC(SCCNC(=O)CCC(=O)N[C@@H](CCCNC(=N)N)C(=O)N[C@@H](CCCNC(=N)N)C(=O)N[C@@H](Cc4ccc5ccccc5c4)C(=O)N[C@@H]4CSSC[C@@H](C(=O)N[C@@H](CCCNC(=N)N)C(N)=O)NC(=O)[C@H](CCCNC(N)=O)NC(=O)[C@H](CCCNC(=N)N)NC(=O)[C@H](Cc5ccc(O)cc5)NC(=O)[C@@H]5CCCN5C(=O)[C@H](CCCCN)NC(=O)[C@H](CCCCN)NC(=O)[C@H](CCCNC(N)=O)NC(=O)[C@H](Cc5ccc(O)cc5)NC4=O)C3=O)cc(c2)CSC[C@@H](C(=O)O)NC(=O)[C@H](Cc2ccccc2)NC(=O)[C@H](CCC(N)=O)NC(=O)C([C@@H](C)O)NC(=O)[C@@H]2CCCN2C(=O)[C@@H]2CCCN2C1=O` (single isomer, unassigned) [^177Lu-SDYD02, metal not drawn], which “radiochemical purity” value (24 hours) is on record?
**A.** 95%

**Q.** What about the “radiochemical purity” value (48 hours) of the same compound?
**A.** 91%

**Q.** And the “radiochemical purity” value (120 hours)?
**A.** 87%

**Q.** For `N#C[C@@H]1CC(F)(F)CN1C(=O)CNC(=O)c1ccnc2ccc(OCCCN3CCN(C(=O)[C@H](CCCCNC(=O)CCN4C(=O)CC(SCC(=O)NCCOCCOCCOCCOCCC(=O)NCCCC[C@@H]5NC(=O)[C@@H](Cc6ccc(O)cc6)NC(=O)[C@H](CC(=O)O)NC(=O)CNC(=O)[C@H](CCCNC(=N)N)NC5=O)C4=O)NC(=O)CCC(C(=O)O)N4CCN(CC(=O)O)CCN(CC(=O)O)CCN(CC(=O)O)CC4)CC3)cc12` (single isomer, unassigned) [^177Lu-SDYD07, metal not drawn], which “radiochemical purity” value (24 hours) is on record?
**A.** 99%

**Q.** What about the “radiochemical purity” value (48 hours) of the same compound?
**A.** 98%

**Q.** And the “radiochemical purity” value (120 hours)?
**A.** 97%

**Q.** With `CCCCCC(=O)N[C@H]1CSCc2cc(CSCCNC(=O)[C@H](CCCCNC(=O)CCN3C(=O)CC(SCC(=O)NCCOCCOCCOCCOCCC(=O)NCCCC[C@@H]4NC(=O)[C@@H](Cc5ccc(O)cc5)NC(=O)[C@H](CC(=O)O)NC(=O)CNC(=O)[C@H](CCCNC(=N)N)NC4=O)C3=O)NC(=O)CCC(C(=O)O)N3CCN(CC(=O)O)CCN(CC(=O)O)CCN(CC(=O)O)CC3)cc(c2)CSC[C@@H](C(=O)O)NC(=O)[C@H](Cc2ccccc2)NC(=O)[C@H](CCC(N)=O)NC(=O)C([C@@H](C)O)NC(=O)[C@@H]2CCCN2C(=O)[C@@H]2CCCN2C1=O` (single isomer, unassigned) [^177Lu-SDYD08, metal not drawn] as the compound, how does the “radiochemical purity” value (24 hours) read?
**A.** 98%

**Q.** What about the “radiochemical purity” value (48 hours) of the same compound?
**A.** 97%

**Q.** What about the “radiochemical purity” value (120 hours) of the same compound?
**A.** 95%

**Q.** Which “radiochemical purity” value (0.5 hours) does the source give for `CN1C(=O)[C@@H](Cc2ccc(O)cc2)NC(=O)CNC(=O)[C@H](Cc2ccc3ccccc3c2)NC(=O)[C@H](CCCNC(=N)N)NC(=O)[C@H]1CCCNC(=O)c1ccc(CNC(=O)[C@H](CCCCNC(=O)CN2CCN(CC(=O)O)CCN(CC(=O)O)CCN(CC(=O)O)CC2)NC(=O)CCC(=O)NCCOCCOCC(=O)NCCOCCOCC(=O)N2CCN(CCCOc3ccc4nccc(C(=O)NCC(=O)N5CC(F)(F)C[C@H]5C#N)c4c3)CC2)cc1` [^68Ga-SDYD05, metal not drawn] here?
**A.** 98%

**Q.** What about the “radiochemical purity” value (1 hour) of the same compound?
**A.** 96%

**Q.** And the “radiochemical purity” value (2 hours)?
**A.** 95%
